Experimental data: patent US9974782B2, “Phosphodiesterase inhibitors and uses thereof” (THE TRUSTEES OF COLUMBIA UNIVERSITY IN THE CITY OF NEW YORK, priority 2008, dated 2018)
Some results were stated once for a whole list of compounds, not compound by compound.

System: other PDE isoforms
Assay: In vitro selectivity profiling against other PDE isoforms

With COc1ccc(CNc2c(CO)cnc3c(N(C)C)cc(C#N)cc23)cc1Cl [YF016203, 4-(3-chloro-4-methoxybenzylamino)-8-(dimethylamino)-3-(hydroxymethyl)-quinoline-6-carbonitrile] as the compound, how does the “selectivity against all other PDE isoforms (PDE5/PDE)” value read?
Its value is greater than 1000.
